Reference: PMC3126725
For at least one entry, the source does not settle the construct or the ends of the probe. A negative result means that nothing was seen under these conditions. Tags and fusion partners may be left off the protein sequences shown.

Target: T1, His-CalA (Nostoc sp. PCC 7120) (UniProt A0ACD7RPR5)
T1 sequence (looked up, limits assumed): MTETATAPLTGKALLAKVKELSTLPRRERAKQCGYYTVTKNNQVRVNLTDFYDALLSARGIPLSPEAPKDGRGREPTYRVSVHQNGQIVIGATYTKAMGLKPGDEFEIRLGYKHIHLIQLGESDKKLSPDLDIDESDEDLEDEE
Assay: EMSA
Conditions: EMSA: 100 ng DNA per 20 ul, 0-45 ng His-CalA, room temperature 1 h, 8% native PAGE, recombinant protein, protein details: His, probe letters rebuilt from the primers and the genome

[1] = 0-45 ng protein, 100 ng DNA per 20 ul, label: none (thiazole orange stain)

Sequence	binding result [1]	binding result
CGGTCTTCATCCAACCAATCTCTGAAGTCATCATAAGTTTGGATTTGTTCGTAGCGTTCTAATGAACAACCTAACCACACTGGTTCTAACCAATTGGTGCGGAAATATTCTAGAATCGCCCAAGCGCGAGTAATGTCTGTTAAAGTGGGGGCGCACATCACGCCACCAGGTACCATGTAGCTAGAATGAGGCCATTGTCCGCCCAACAGTGCATAAATTTCTACGGGTTTAGCAGAAATTGTTATGCCTAGTTCGTAAGATTTGCCAGTGAAGGCGGCAAAGCGTCTAACAGCTTCCTCATAATGGCG (double strand) [C1 (hupL fragment)]	no binding	
TTACGCATCTCATCACGGGCCATACCGATTTACGCAGGCTTCGAGTCCTTTAGGCGGAATTCCCCTTTTGTCTGAAACTAGAGGCTAGGGATTAATGATGCTAGGGACTAGGAAAATTTTTCCCAATACCTAATACTTAATCCTCAATCCCCTAAATTGAGTGAATTAATTTTTTTACTATAAAACACTCTATTTCTAAAATTCTAGGGGGAAATTGCCAATATTAATGTCAGCTTTAAACACCTTACATTTTGATAAGGTGTTCTGTATCATGACCTGACACAACGCAGTTCTTCTATATTGAATTGATAACATCTTATATATTTAAGACCTAACTTTGTTATCAAAATATAACTATTTGCTTTGAACTTAAAAATAAATTTATTTACTATTTACTTTTTTTGGCTAGTGCTGATATTTCTTAACGTACAAGACTTCACCTTTAAAATCTTAGCCCATTTATATAGAAAAGTTGAGATTACAACTCTCTCAAAATGATTTAAAACAGCTATCTAAAATCAGTGTGCTTAGTTTGTTATTCAAGCTTTTGTGAAAAATTATGTTCTTGATACAACCTTGTAAGCAATCTTAAGTAGATTTAAATTATTAGCAATGATTAATTTTTATTTAACAAAAGATAATTCACTAGAAAATCCACTAATATTAATGAATAAATATTGATAAATACGTGAGACTCTACAAGCATTATTTACTAATTCACGTATGGCAAACAATACAAAAACACCTAGCCC (double strand) [PhupS/Npun_R0367, EMSA]		binds
TTCTAAAATTCTAGGGGGAAATTGCCAATATTAATGTCAGCTTTAAACACCTTACATTTTGATAAGGTGTTCTGTATCATGACCTGACACAACGCAGTTCTTCTATATTGAATTGATAACATCTTATATATTTAAGACCTAACTTTGTTATCAAAATATAACTATTTGCTTTGAACTTAAAAATAAATTTATTTACTATTTACTTTTTTTGGCTAGTGCTGATATTTCTTAACGTACAAGACTTCACCTTTAAAATCTTAGCCCATTTATATAGAAAAGTTGAGATTACAACTCTCTCAAAATGATTTAAAACAGCTATCTAAAATCAGTGTGCTTAGTTTGTTATTCAAGCTTTTGTGAAAAATTATGTTCTTGATACAACCTTGTAAGCAATCTTAAGTAGATTTAAATTATTAGCAATGATTAATTTTTATTTAACAAAAGATAATTCACTAGAAAATCCACTAATATTAATGAATAAATATTGATAAATACGTGAGACTCTACAAGCATTATTTACTAATTCACGTATGGCAAACAATACAAAAACACCTAGCCC (double strand) [PhupS]	binds	
